The list shows a part of the results. Further columns of the screen follow, without active or inactive calls. Compounds called inactive in the main read-out are mostly missing here. Words in brackets tell the shape of the fitted curve; partial curves, single points and poor fits give uncertain potencies.
Test: qHTS Assay to Find Inhibitors of Chronic Active B-Cell Receptor Signaling
Conditions: ABC-DLBCL IkBa-CBG/CBR reporter, luminescence ratio (green luciferase fused to IkBa over red control in TMD8 lymphoma cells), 4 h
Outline: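 TMD8 human ABC-DLBCL cells with doxycycline-inducible IκBα–green luciferase fusion and unfused red luciferase, in 0.5% FBS medium; compounds up to 46 uM, 4 h at 37C. Green/red luminescence ratio, filter-overlap corrected, fitted to concentration-response curves.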

[1] = measured here: CBR red luminescence, cell number
[2] = measured here: IkBa-CBG green luminescence

| Structure (SMILES) | AC50 [1] | AC50 [2] |
| --- | --- | --- |
| COc1cccc(/C=C2\Oc3cc(OCC(=O)N4CCCCC4)ccc3C2=O)c1OC | 25.1 µM [falling, single point] |  |
| O=C(CCSc1ccccc1)Nc1ccccc1Br | 22.4 µM [falling, partial curve, poor fit] |  |
| COc1ccc(NC(=O)CSC2=Nc3ccccc3C3=NC(CC(=O)NCc4ccco4)C(=O)N23)cc1 (centres undefined) | 28.2 µM [falling, partial curve, poor fit] |  |
| CC(=O)NCc1cc(Cl)c2cccnc2c1O | 29.1 µM [falling, single point] |  |
| CCN1C(=O)CC(N2CCN(c3ccc(C(=O)c4ccncc4)cc3)CC2)C1=O (centres undefined) | 18.4 µM [falling, partial curve, poor fit] |  |
| CCNC(=S)NNC(=O)CSc1nc2ccccc2n1C | 2.51 µM [rising, full curve, poor fit] |  |
| CC1CC(C)(C)NC(=S)N1CC(=O)NCc1ccc(Cl)cc1 (centres undefined) | 25.9 µM [falling, single point] |  |
| O=C(CN1c2cccc3cccc(c23)S1(=O)=O)N1CCN(c2ccccc2)CC1 | 25.9 µM [rising, single point] |  |
| CCCCNc1c(-c2ccc(-c3cccc(Cl)c3)cc2)nc2ccc(Cl)cn12 | 7.31 µM [falling, single point] |  |
| CCOC(=O)N1CCN(C(=O)c2cc3c(s2)-c2ccccc2OC3)CC1 | 11.6 µM [falling, single point] |  |
| O=C(O)CCCC(=O)OCCCCc1cccs1 | 11.2 µM [falling, single point] |  |
| CCNC(=O)NC(=O)COC(=O)CCCSc1nc2ccccc2s1 | 5.8 µM [falling, partial curve, poor fit] | 0.092 µM [rising, full curve, poor fit] |
| Brc1ccc(CSc2nnc(-c3ccccn3)n2Cc2ccco2)cc1 | 12.6 µM [rising, partial curve] |  |
| Cc1cc(OCC(=O)N2CCOCC2)cc2oc(=O)c3ccccc3c12 | 23.1 µM [rising, single point] |  |
| CCOC(=O)c1ccccc1NC(=O)COC(=O)c1cc([N+](=O)[O-])ccc1N1CCOCC1 | 16.4 µM [falling, single point] |  |
| COc1cc(NC(=O)CN(c2ccc(C)cc2)S(=O)(=O)c2c(C)nn(C)c2C)cc(OC)c1 | 1.58 µM [falling, full curve, poor fit] |  |
| COCCNc1oc(-c2ccccc2Cl)nc1C#N | 29.1 µM [falling, single point] |  |
| CCc1[nH]nc2c1C(C(C)C)C(C#N)=C(N)O2 (centres undefined) | 15.8 µM [falling, partial curve, poor fit] |  |
| CCC(C)(C)n1nnnc1CN1CCSCC1 | 9.2 µM [rising, partial curve, poor fit] |  |
| COc1ccc(-c2nc3ccccc3n2CCC(C)C)cc1OC | 18.4 µM [falling, single point] |  |
| COc1ccccc1-c1ccc(C(=O)O)o1 | 9.2 µM [falling, partial curve] |  |

| Structure (SMILES) | AC50 [1] | AC50 [2] |
| --- | --- | --- |
| C=CCNC(=O)c1ccc(CSc2nc3ccccc3s2)cc1 | 35.5 µM [falling, single point] |  |
| COC(=O)c1sccc1NC(=O)/C=C/c1ccc(Cl)cc1 | 0.326 µM [falling, full curve] |  |
| COC(=O)CN(n1cnnc1)S(=O)(=O)c1ccccc1 | 35.5 µM [rising, single point] | 35.5 µM [falling, partial curve, poor fit] |
| C#CCN1C(=O)C(O)(CC(=O)/C=C/c2ccco2)c2ccccc21 (centres undefined) | 8.91 µM [falling, partial curve] |  |
| CCn1c2c(c3cc(OCC(C)C)ccc31)CCCC2=O | 20.6 µM [rising, partial curve, poor fit] |  |
| CCOC(=O)N1CCN(S(=O)(=O)c2cccc3cccnc23)CC1 | 7.94 µM [rising, partial curve, poor fit] |  |
| COc1cccc(CNc2ccc3[nH]c(=O)[nH]c3c2)c1OCc1ccccc1Cl | 22.4 µM [falling, single point] |  |
| CC(=O)Nc1nnc(-c2ccc(Cl)s2)o1 | 3.26 µM [rising, full curve, poor fit] |  |
| COc1ccc(CNc2nc3ccccc3n2Cc2ccc(C)cc2)cc1OC | 29.1 µM [falling, single point] |  |
| CSc1ccccc1NC(=O)COC(=O)CSc1ccc(C)cc1 | 29.1 µM [falling, single point] |  |
| CCCOc1ccc(C(=O)NC(=S)N2CCN(c3cc4c(cc3F)c(=O)c(C(=O)O)cn4CC)CC2)cc1 | 0.447 µM [rising, full curve, poor fit] |  |
| CCC(=O)NCC(=O)OCC(=O)c1ccccc1 | 29.1 µM [rising, single point] |  |
| COc1ccccc1C(=O)NC(CCSC)C(=O)OC(C)C(N)=O (centres undefined) | 31.6 µM [rising, single point] |  |
| CC1CCN(C(=O)CN(C2CCCCC2)S(C)(=O)=O)CC1 | 6.51 µM [rising, single point] |  |
| COc1ccc(/C(C)=N/N2C(=O)c3ccccc3NC2c2ccc(O)c(OC)c2)cc1 (centres undefined) | 7.94 µM [falling, partial curve] |  |
| CC(C)(C)C(=O)Nc1ccc(S(=O)(=O)N2CCC(c3nc4ccccc4[nH]3)CC2)cc1 |  | 3.26 µM [falling, partial curve, poor fit] |
| Cc1ccc(-c2nnc(SCC(=O)c3ccc(Cl)cc3)n2-c2ccccc2)cc1 | 5.62 µM [rising, single point] |  |
| COc1ccc(-c2noc(CCCC(=O)Nc3ccc(C(N)=O)cc3)n2)cc1 | 11.2 µM [falling, partial curve] |  |
| O=c1[nH]c2ccccc2n1Cc1ccc(Cl)cc1 | 20.6 µM [rising, single point] |  |
| CC(C)(C)SCCNC(=O)/C=C/c1cccc([N+](=O)[O-])c1 | 9.2 µM [rising, partial curve, poor fit] |  |
| COc1ccc(Cn2cccc(NC(=O)Nc3ccc(C#N)cc3)c2=O)cc1 | 12.6 µM [rising, single point] |  |

| Structure (SMILES) | AC50 [1] | AC50 [2] |
| --- | --- | --- |
| Cc1ccccc1-n1c(SCC(=O)N/N=C/c2ccccc2OCC(=O)O)nc2ccccc2c1=O | 35.5 µM [falling, partial curve, poor fit] |  |
| O=C(/C=C1\SC(=O)NC1=O)Nc1ccc(F)cc1 | 35.5 µM [falling, single point] |  |
| CCN(CC)S(=O)(=O)c1ccc(C(=O)N2CCN(C(=O)c3ccco3)CC2)cc1 | 1.03 µM [rising, full curve, poor fit] |  |
| CCNC(=S)NS(=O)(=O)c1ccc(Cl)cc1 | 4.11 µM [rising, partial curve, poor fit] |  |
| O=C1NC(=O)C(Cc2c[nH]c3ccccc23)N1 (centres undefined) | 0.0891 µM [rising, full curve, poor fit] |  |
| CCOc1ccccc1NC(=O)Cn1nnc(C(=O)NCc2ccco2)c1N | 12.6 µM [rising, partial curve] | 3.16 µM [falling, partial curve] |
| COC(=O)c1ccccc1NC(=S)NC(=O)c1ccc(C)cc1 | 7.31 µM [falling, partial curve] |  |
| CC(=O)N1CCN(C(=O)c2cc3ccccc3o2)CC1 | 20 µM [rising, partial curve, poor fit] |  |
| CC(C)(C)c1ccc(C(=O)NCCc2ccccc2)cc1 | 2 µM [rising, partial curve, poor fit] |  |
| COC(=O)c1c(N2C(=O)Nc3ccccc3N2O)sc2c1CCCC2 | 29.1 µM [falling, single point] | 25.9 µM [rising, partial curve, poor fit] |
| Cc1cc(C)cc(NC(=O)CSCc2cnn(-c3ccccc3)c2-n2cccc2)c1 | 3.26 µM [rising, partial curve] | 5.17 µM [falling, partial curve, poor fit] |
| COc1ccc(C2CC(c3ccccc3)=NN2C(=O)COC(=O)c2cccc(O)c2)cc1 (centres undefined) | 14.6 µM [falling, partial curve, poor fit] |  |
| COc1ccccc1CCCNC(=O)C1CCC(=O)N(CCc2ccc(Cl)cc2)C1 (centres undefined) | 35.5 µM [falling, single point] |  |
| CCc1ccc(OCC(=O)N(Cc2ccccc2)C2CCS(=O)(=O)C2)cc1 (centres undefined) | 6.31 µM [falling, single point] |  |
| Cc1ccc(/C=C2\SC(N3CCN(C(c4ccccc4)c4ccccc4)CC3)=NC2=O)o1 | 29.1 µM [falling, single point] |  |
| COc1ccc(CCNS(=O)(=O)c2cn(C)c(=O)n(C)c2=O)cc1OC | 18.4 µM [rising, partial curve, poor fit] |  |
| CN1CCc2c(sc(NC(=O)c3cc4cc([N+](=O)[O-])ccc4s3)c2C(N)=O)C1 | 10 µM [falling, partial curve, poor fit] | 10 µM [rising, partial curve, poor fit] |
| Brc1ccc(OCc2cn3ccccc3n2)cc1 | 5.01 µM [falling, partial curve, poor fit] |  |
| O=C(/C=C/c1cccc(F)c1)NNC(=O)c1ccncc1 | 29.1 µM [falling, single point] |  |
| O=C(NCc1cccnc1)c1nc(-c2ccccc2)n(-c2ccccc2)n1 | 11.2 µM [falling, single point] |  |
| CC(C)N(C(=O)[C@H]1C[C@H](CC(=O)NCCCn2ccnc2)C(=O)N2CCc3c([nH]c4cc(-c5ccco5)ccc34)[C@]12C)C(C)C | 32.6 µM [rising, partial curve, poor fit] |  |

Looked up one by one from the list above:

| Structure (SMILES) | AC50 [1] | AC50 [2] |
| --- | --- | --- |
| CC(C)(C)c1ccc(C(=O)NCCc2ccccc2)cc1 | 2 µM [rising, partial curve, poor fit] |  |
| COc1ccc(CCNS(=O)(=O)c2cn(C)c(=O)n(C)c2=O)cc1OC | 18.4 µM [rising, partial curve, poor fit] |  |
| CC(=O)N1CCN(C(=O)c2cc3ccccc3o2)CC1 | 20 µM [rising, partial curve, poor fit] |  |

Another view of 2 compounds above.
CN1CCc2c(sc(NC(=O)c3cc4cc([N+](=O)[O-])ccc4s3)c2C(N)=O)C1
  AC50 [1]: 10 µM [falling, partial curve, poor fit]
  AC50 [2]: 10 µM [rising, partial curve, poor fit]
Brc1ccc(OCc2cn3ccccc3n2)cc1
  AC50 [1]: 5.01 µM [falling, partial curve, poor fit]

From PubChem BioAssay AID493014 (National Center for Advancing Translational Sciences (NCATS), 2011)
